Data on 1 molecule can be found in paper PMC3510188.

The target in this assay is T1, Ndp52 (human (endogenous in A549)) (UniProt Q13137).
T1 sequence: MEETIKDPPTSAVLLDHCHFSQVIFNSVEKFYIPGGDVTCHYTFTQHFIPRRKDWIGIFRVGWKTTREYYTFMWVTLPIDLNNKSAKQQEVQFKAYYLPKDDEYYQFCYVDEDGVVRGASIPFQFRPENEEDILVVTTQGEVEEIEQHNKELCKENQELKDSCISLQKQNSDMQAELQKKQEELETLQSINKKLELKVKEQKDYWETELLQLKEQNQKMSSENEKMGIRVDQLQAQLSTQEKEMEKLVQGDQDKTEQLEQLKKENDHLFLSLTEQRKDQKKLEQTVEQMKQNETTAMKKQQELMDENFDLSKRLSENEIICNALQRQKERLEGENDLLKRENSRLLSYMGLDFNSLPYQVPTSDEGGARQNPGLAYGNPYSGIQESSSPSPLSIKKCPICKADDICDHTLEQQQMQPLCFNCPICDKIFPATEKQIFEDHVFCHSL
In words: co-IP; exponentially growing A549 cells in the basal state lysed in IGEPAL IP buffer; endogenous proteins; immunoprecipitation for 4 hours with 1 µg anti-Ndp52 or non-specific rabbit IgG pre-bound to protein A/G agarose, three washes; blots.

These are yes or no findings as the source states them, for the method shown. In cells and extracts the contact can be indirect. Some entries that bind do so weakly or less than the wild type.

B1: TBK1 (TANK-binding kinase 1) (protein, UniProt Q9UHD2 1-729)
chain: MQSTSNHLWLLSDILGQGATANVFRGRHKKTGDLFAIKVFNNISFLRPVDVQMREFEVLKKLNHKNIVKLFAIEEETTTRHKVLIMEFCPCGSLYTVLEEPSNAYGLPESEFLIVLRDVVGGMNHLRENGIVHRDIKPGNIMRVIGEDGQSVYKLTDFGAARELEDDEQFVSLYGTEEYLHPDMYERAVLRKDHQKKYGATVDLWSIGVTFYHAATGSLPFRPFEGPRRNKEVMYKIITGKPSGAISGVQKAENGPIDWSGDMPVSCSLSRGLQVLLTPVLANILEADQEKCWGFDQFFAETSDILHRMVIHVFSLQQMTAHKIYIHSYNTATIFHELVYKQTKIISSNQELIYEGRRLVLEPGRLAQHFPKTTEENPIFVVSREPLNTIGLIYEKISLPKVHPRYDLDGDASMAKAITGVVCYACRIASTLLLYQELMRKGIRWLIELIKDDYNETVHKKTEVVITLDFCIRNIEKTVKVYEKLMKINLEAAELGEISDIHTKLLRLSSSQGTIETSLQDIDSRLSPGGSLADAWAHQEGTHPKDRNVEKLQVLLNCMTEIYYQFKKDKAERRLAYNEEQIHKFDKQKLYYHATKAMTHFTDECVKKYEAFLNKSEEWIRKMLHLRKQLLSLTNQCFDIEEEVSKYQEYTNELQETLPQKMFTASSGIKHTMTPIYPSSNTLVEMTLGMKKLKEEMEGVVKELAENNHILERFGSLTMDGGLRNVDCL
Turning to B1, the binding result is listed as “binds”.
